The list shows a part of the results. The main result of the screen is listed elsewhere. These columns were measured beside it and carry no call. Compounds called inactive in the main read-out are mostly missing here. Words in brackets tell the shape of the fitted curve; partial curves, single points and poor fits give uncertain potencies.
Assay: qHTS Assay to Find Inhibitors of Chronic Active B-Cell Receptor Signaling
Details: ABC-DLBCL IkBa-CBG/CBR reporter, luminescence ratio (green luciferase fused to IkBa over red control in TMD8 lymphoma cells), 4 h
Outline: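 Cell line TMD8 (human ABC DLBCL), stably expressing tet-inducible CBG68-IkBa fusion and CBR; IMDM/0.5% FBS; cpd up to 46 uM; dox induction, 4 h, 37C/5% CO2; dual luminescence; green/red ratio; MG132 control.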

[1] = measured here: CBR red luminescence, cell number
[2] = measured here: IkBa-CBG green luminescence

Q: What does the source list for `COc1ccc(C(=O)Nc2nnc(CC(=O)N/N=C/c3ccc(O)cc3O)s2)cc1`?
A: AC50 [1]: 3.98 µM [falling, partial curve]; AC50 [2]: 20 µM [rising, partial curve, poor fit]

Q: With `O=c1ccc(Oc2nc(N3CCOCC3)nc(N3CCOCC3)n2)nn1-c1ccccc1` as the molecule, how does the AC50 [1] read?
A: 3.26 µM [falling, partial curve, poor fit]

Q: For `Cc1ccc(-c2ccc(/C=N/NC(N)=S)o2)cc1`, which AC50 [2] is on record?
A: 17.8 µM [falling, partial curve]

Q: Which AC50 [1] does the source give for `O=C(Nc1ccccc1F)c1ccn[nH]1` here?
A: 5.62 µM [falling, partial curve, poor fit]

Q: Which AC50 [1] does the source give for `Cc1cc(N2CCN(c3ccccc3)CC2)n2nnnc2n1` here?
A: 2.91 µM [rising, partial curve, poor fit]

Q: Which AC50 [1] does the source give for `CCNc1nc(NCC)nc(SCCOC(=O)Nc2ccccc2)n1` here?
A: 9.2 µM [rising, partial curve, poor fit]

Q: With `O=C(/C=C/c1cc(Br)ccc1O)c1ccco1` as the molecule, how does the AC50 [1] read?
A: 15.8 µM [falling, partial curve, poor fit]

Q: With `CCCc1[nH]nc2c1C(c1ccc(Br)s1)C(C#N)=C(N)O2` (stereo not drawn) as the molecule, how does the AC50 [1] read?
A: 1.64 µM [falling, full curve, poor fit]

Q: With `CCc1ccc(NC(=O)N2CCN(c3ccccc3)CC2)cc1` as the molecule, how does the AC50 [1] read?
A: 8.91 µM [rising, partial curve, poor fit]

Q: Which AC50 [1] does the source give for `c1cc2cc(-c3c(-c4ccc5c(c4)OCO5)noc3-c3ccsc3)ccc2[nH]1` here?
A: 35.5 µM [rising, single point]

Q: What about the AC50 [2] of the same molecule?
A: 10 µM [rising, partial curve, poor fit]

Q: Which AC50 [1] does the source give for `CCNc1nc(N)nc(-c2cc(Cl)ccc2O)n1` here?
A: 10.3 µM [falling, partial curve]

Q: With `COc1ccc(C(=O)CN2CCN(c3ccc(F)cc3)CC2)cc1` as the molecule, how does the AC50 [1] read?
A: 28.2 µM [falling, partial curve, poor fit]

Q: For `CCn1c(=O)cc(OCC(=O)N2CCCC2)c2ccccc21`, which AC50 [1] is on record?
A: 4.11 µM [rising, full curve, poor fit]

Q: For `O=C(O)c1cccc(-n2cc(-c3cccc(C(F)(F)F)c3)cn2)c1`, which AC50 [1] is on record?
A: 10 µM [falling, partial curve]

Q: For `COc1ccc(-c2ccc(C(=O)C3CC3)cc2)cc1`, which AC50 [1] is on record?
A: 3.16 µM [rising, full curve, poor fit]

Q: For `CCOC(=O)c1c(-c2ccccc2)nnn1-c1nc(OCC)nc(N2CCCCC2)n1`, which AC50 [1] is on record?
A: 0.00651 µM [rising, full curve, poor fit]

Q: For `CCCn1c(C2CCCN2c2nc(-c3ccc(OC)cc3)cs2)nc2ccccc21` (stereo not drawn), which AC50 [1] is on record?
A: 12.6 µM [falling, single point]

Q: For `CC(C)(C)C1CCC(=NNc2ncc(C(F)(F)F)cc2Cl)CC1` (stereo not drawn), which AC50 [1] is on record?
A: 0.058 µM [rising, full curve, poor fit]

Q: With `C/C(=N/NC(=O)c1ccc(Cl)s1)c1cccnc1` as the molecule, how does the AC50 [1] read?
A: 7.94 µM [falling, partial curve, poor fit]

Q: With `CN(C)Cc1ccc(F)cc1Sc1ccc(Cl)cc1Cl` as the molecule, how does the AC50 [1] read?
A: 29.1 µM [rising, single point]

Q: Which AC50 [1] does the source give for `CC(=O)c1cccc(NC(=O)COC(=O)C2CCCN2C(=O)c2cccs2)c1` (stereo not drawn) here?
A: 23.1 µM [rising, partial curve, poor fit]

Q: For `CCCCNC(=O)Nc1ccccc1C(=O)NCc1ccco1`, which AC50 [1] is on record?
A: 0.282 µM [rising, full curve, poor fit]

Q: Which AC50 [1] does the source give for `O=C(COC(=O)c1cccnc1Nc1cccc(C(F)(F)F)c1)NC1CCS(=O)(=O)C1` (stereo not drawn) here?
A: 8.2 µM [falling, single point]

Q: With `Cc1cccc(C(=O)NN2S(=O)(=O)c3ccccc3S2(=O)=O)c1` as the molecule, how does the AC50 [1] read?
A: 10 µM [falling, partial curve]

Q: For `Nc1cc(Cl)ccc1Oc1ccc(Cl)cc1`, which AC50 [1] is on record?
A: 35.5 µM [rising, single point]

Q: With `COc1cccc(NC(=O)C2CCCN(S(=O)(=O)c3cccc4nsnc34)C2)c1` (stereo not drawn) as the molecule, how does the AC50 [1] read?
A: 0.731 µM [falling, full curve, poor fit]

Q: Which AC50 [1] does the source give for `COc1cc(-c2cc(C(=O)Nc3ccc(N4CCOCC4)cc3)c3ccccc3n2)cc(OC)c1OC` here?
A: 3.55 µM [rising, partial curve, poor fit]

Q: With `Nc1c2c(nc3sc4c(c13)CCCCC4)CCCCC2` as the molecule, how does the AC50 [1] read?
A: 0.58 µM [rising, full curve, poor fit]

Q: Which AC50 [1] does the source give for `CN(Cc1ccccc1)C(=O)c1nc[nH]c1C(=O)N1CCN(c2ccccc2)CC1` here?
A: 1.03 µM [rising, full curve]

Q: Which AC50 [1] does the source give for `Cc1ccc(C)c(S(=O)(=O)N(C)Cc2cccs2)c1` here?
A: 6.51 µM [rising, single point]

Q: For `COc1ccc(-c2nnc(-c3ccccc3)o2)cc1OC`, which AC50 [1] is on record?
A: 17.8 µM [falling, single point]

Q: With `CC(=O)Nc1cccc(-c2csc(NCc3ccccc3)n2)c1` as the molecule, how does the AC50 [1] read?
A: 0.1 µM [rising, full curve, poor fit]

Q: Which AC50 [1] does the source give for `CCNc1nc(NCC)nc(N(C#N)CCOc2ccccc2)n1` here?
A: 0.631 µM [rising, full curve, poor fit]

Q: For `COc1cc(/C=C/C(=O)c2ccc(C)cc2)ccc1OCC#N`, which AC50 [1] is on record?
A: 14.6 µM [falling, partial curve, poor fit]

Q: With `O=C(CSc1nncc2ccccc12)N1CCCCC1` as the molecule, how does the AC50 [1] read?
A: 11.2 µM [falling, partial curve, poor fit]

Q: For `COc1cccc(C(=O)/C=C/Nc2ccc(S(=O)(=O)Nc3ccc(C(C)=O)cc3)cc2)c1`, which AC50 [1] is on record?
A: 29.1 µM [falling, single point]

Q: For `COc1ccccc1N1CCN(c2ncnc3c2c(-c2ccccc2)cn3-c2cccc(C)c2)CC1`, which AC50 [1] is on record?
A: 0.282 µM [rising, partial curve, poor fit]

Q: Which AC50 [1] does the source give for `COc1ccc(C(=O)Nc2ccc(-c3n[nH]c(=S)o3)cc2)cc1OC` here?
A: 3.16 µM [rising, single point]

Q: Which AC50 [1] does the source give for `O=C(NNC(=O)c1ccccc1O)c1ccc(S(=O)(=O)Nc2ccccc2F)cc1` here?
A: 29.1 µM [falling, single point]

Q: Which AC50 [1] does the source give for `COCC(=O)Nc1ccc(N2CCOCC2)c(S(=O)(=O)Nc2ccccc2OC)c1` here?
A: 2.59 µM [rising, single point]

Q: Which AC50 [1] does the source give for `Cc1ccc(N2CCN(S(=O)(=O)c3c(C)nc4scc(C)n4c3=O)CC2)c(C)c1` here?
A: 17.8 µM [rising, single point]

Source: PubChem BioAssay AID493014 (National Center for Advancing Translational Sciences (NCATS), 2011)
